Reference: patent publication US9550821B2, “Modulation of ghrelin levels and ghrelin/unacylated ghrelin ratio using unacylated ghrelin” (ALIZÉ PHARMA SAS, priority 2012, dated 2017)
At least one peptide structure holds a part that was inferred or is arguable (an end, a ring closure or a residue).

Tests used:
Type in all cases: in vivo, human
plasma AG levels = experiment: Short (2.5 hour) UAG infusion in T2DM subjects: plasma AG levels; conditions: 2.5 hour UAG infusion vs before infusion
serum AG levels = experiment: Overnight (15 hours) UAG infusion in T2DM subjects: serum AG levels by MSD ELISA; conditions: for serum AG levels following SBM: after SBM, placebo 14.03±9.4; for serum AG levels before SBM (mean±SD): before initiation of SBM, placebo 21.01±8.9
[1] = test system: post-prandial glucose levels; experiment: Overnight UAG infusion in T2DM subjects: post-prandial glucose and insulin response to standard breakfast meal (SBM); conditions: for post-prandial glucose area under the curve (iPro continuous glucose monitoring): after SBM, placebo 1618
insulin sensitivity = experiment: Hyperinsulinemic-euglycemic clamp study in T2DM subjects (M-index, insulin sensitivity); conditions: 10 μg/kg/h UAG iv infusion for 2.5 hr, p=0.02
[2] = 3 mcg/kg·hr UAG overnight infusion
[3] = 10 mcg/kg·hr UAG overnight infusion

## CC(C)C[C@H](NC(=O)[C@H](CCCCN)NC(=O)[C@H](C)NC(=O)[C@@H]1CCCN1C(=O)[C@@H]1CCCN1C(=O)[C@H](CCCCN)NC(=O)[C@H](CCCCN)NC(=O)[C@H](CO)NC(=O)[C@H](CCC(=O)O)NC(=O)[C@H](CCCCN)NC(=O)[C@H](CCCNC(=N)N)NC(=O)[C@H](CCC(N)=O)NC(=O)[C@H](CCC(N)=O)NC(=O)[C@@H](NC(=O)[C@H](CCCNC(=N)N)NC(=O)[C@H](CCC(N)=O)NC(=O)[C@H](Cc1c[nH]cn1)NC(=O)[C@H](CCC(=O)O)NC(=O)[C@@H]1CCCN1C(=O)[C@H](CO)NC(=O)[C@H](CC(C)C)NC(=O)[C@H](Cc1ccccc1)NC(=O)[C@H](CO)NC(=O)[C@H](CO)NC(=O)CN)C(C)C)C(=O)N[C@@H](CCC(N)=O)C(=O)N1CCC[C@H]1C(=O)N[C@@H](CCCNC(=N)N)C(=O)O [UAG]
Plasma AG levels
  plasma AG levels after shortened UAG infusion: sufficient to decrease plasma AG levels
Serum AG levels; [2]
  serum AG levels following SBM: 0.8 ± 1.8 pg/mL
  serum AG levels before SBM (mean±SD): 3.0 ± 6.7 pg/mL
Serum AG levels; [3]
  serum AG levels following SBM: 0.8 ± 1.8 pg/mL
  serum AG levels before SBM (mean±SD): 1.4 ± 3.2 pg/mL
[1]; 3 and 10 mcg UAG infusion doses
  area under the curve of glucose change from pre-SBM baseline, compared to placebo: decreased
[1]; 3 mcg UAG infusion
  post-prandial glucose area under the curve (iPro continuous glucose monitoring): 1601 mmol/3 hrs
[1]; 10 mcg UAG infusion
  post-prandial glucose area under the curve (iPro continuous glucose monitoring): 1540 mmol/3 hrs
[1]; UAG infusion vs placebo, 10 mcg vs placebo p<0.05
  plasma glucose peak after SBM: decrease in plasma glucose peak after SBM
[1]; low and high dose of UAG infusions (data not shown)
  serum insulin levels during infusion: No significant change in serum insulin levels
Insulin sensitivity
  M-index change from baseline, increase in UAG vs. placebo group: 36%
